Data taken from the supplement of paper PMC12823440, “Inhibitors supercharge kinase turnover through native proteolytic circuits” (Nature, 2025).
Where a name gives a salt, the structure may show the parent alone. The list shows a part of the results. The calls rarely recur for the same compound in another form.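 Kinases were expressed as nanoluciferase fusions in K562 cells and luminescence was read every 4 h between 2 and 18 h as percent of control, DMSO set to 100% and a positive control to 0%. A time point counts as decreased when the signal drops significantly (2 sigma). The hit call is the authors' own, does not follow from the count of time points alone, and its rule is not shown.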

Sequences of proteins named here, by UniProt entry; tags and fusion partners are left off. A change or cut given only in a name is not applied to a line headed by its entry.
UniProt Q9Y616: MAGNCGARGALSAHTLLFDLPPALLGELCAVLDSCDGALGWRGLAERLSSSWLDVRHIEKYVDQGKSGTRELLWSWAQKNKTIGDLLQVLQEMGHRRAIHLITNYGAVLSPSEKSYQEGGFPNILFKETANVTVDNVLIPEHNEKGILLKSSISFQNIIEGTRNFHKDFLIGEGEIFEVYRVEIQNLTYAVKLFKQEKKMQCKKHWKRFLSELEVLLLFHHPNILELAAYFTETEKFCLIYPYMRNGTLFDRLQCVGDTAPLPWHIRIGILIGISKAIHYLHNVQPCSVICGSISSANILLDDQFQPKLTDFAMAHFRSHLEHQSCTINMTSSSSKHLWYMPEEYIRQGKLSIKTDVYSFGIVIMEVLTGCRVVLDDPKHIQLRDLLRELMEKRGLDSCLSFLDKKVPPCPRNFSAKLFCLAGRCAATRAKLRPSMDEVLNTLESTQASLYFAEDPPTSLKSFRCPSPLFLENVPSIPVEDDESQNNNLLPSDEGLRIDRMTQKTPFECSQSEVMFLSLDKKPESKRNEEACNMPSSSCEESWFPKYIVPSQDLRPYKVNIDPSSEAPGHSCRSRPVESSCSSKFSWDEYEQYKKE
UniProt P23458: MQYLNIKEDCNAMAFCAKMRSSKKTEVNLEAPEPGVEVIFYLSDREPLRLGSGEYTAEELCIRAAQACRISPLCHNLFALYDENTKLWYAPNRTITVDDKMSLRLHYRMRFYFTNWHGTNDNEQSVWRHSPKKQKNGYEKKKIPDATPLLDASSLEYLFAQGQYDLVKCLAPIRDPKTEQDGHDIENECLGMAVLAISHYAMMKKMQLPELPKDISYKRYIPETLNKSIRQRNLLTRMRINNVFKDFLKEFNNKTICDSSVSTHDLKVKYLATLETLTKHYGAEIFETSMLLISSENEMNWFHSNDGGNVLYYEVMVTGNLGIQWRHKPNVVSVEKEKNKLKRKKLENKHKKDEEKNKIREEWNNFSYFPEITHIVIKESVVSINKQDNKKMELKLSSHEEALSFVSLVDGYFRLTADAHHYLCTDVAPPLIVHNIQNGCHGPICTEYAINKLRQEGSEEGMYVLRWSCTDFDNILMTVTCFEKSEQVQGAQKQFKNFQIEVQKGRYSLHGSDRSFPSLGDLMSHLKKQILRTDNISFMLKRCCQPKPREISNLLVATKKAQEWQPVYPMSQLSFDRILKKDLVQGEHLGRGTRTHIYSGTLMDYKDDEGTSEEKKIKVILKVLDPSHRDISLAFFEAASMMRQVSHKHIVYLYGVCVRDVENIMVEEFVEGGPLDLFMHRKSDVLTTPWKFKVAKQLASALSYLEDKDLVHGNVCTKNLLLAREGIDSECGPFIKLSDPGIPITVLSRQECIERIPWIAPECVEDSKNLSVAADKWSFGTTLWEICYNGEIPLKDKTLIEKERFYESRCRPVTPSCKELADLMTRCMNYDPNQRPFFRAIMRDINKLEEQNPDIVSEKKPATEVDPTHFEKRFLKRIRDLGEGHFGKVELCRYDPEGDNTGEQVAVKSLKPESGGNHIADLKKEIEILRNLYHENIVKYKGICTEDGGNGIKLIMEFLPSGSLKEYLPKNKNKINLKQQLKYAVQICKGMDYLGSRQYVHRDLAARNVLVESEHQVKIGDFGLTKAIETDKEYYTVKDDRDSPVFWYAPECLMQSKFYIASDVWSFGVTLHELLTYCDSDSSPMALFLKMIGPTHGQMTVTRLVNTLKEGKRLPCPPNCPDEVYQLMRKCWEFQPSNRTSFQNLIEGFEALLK
UniProt P06239: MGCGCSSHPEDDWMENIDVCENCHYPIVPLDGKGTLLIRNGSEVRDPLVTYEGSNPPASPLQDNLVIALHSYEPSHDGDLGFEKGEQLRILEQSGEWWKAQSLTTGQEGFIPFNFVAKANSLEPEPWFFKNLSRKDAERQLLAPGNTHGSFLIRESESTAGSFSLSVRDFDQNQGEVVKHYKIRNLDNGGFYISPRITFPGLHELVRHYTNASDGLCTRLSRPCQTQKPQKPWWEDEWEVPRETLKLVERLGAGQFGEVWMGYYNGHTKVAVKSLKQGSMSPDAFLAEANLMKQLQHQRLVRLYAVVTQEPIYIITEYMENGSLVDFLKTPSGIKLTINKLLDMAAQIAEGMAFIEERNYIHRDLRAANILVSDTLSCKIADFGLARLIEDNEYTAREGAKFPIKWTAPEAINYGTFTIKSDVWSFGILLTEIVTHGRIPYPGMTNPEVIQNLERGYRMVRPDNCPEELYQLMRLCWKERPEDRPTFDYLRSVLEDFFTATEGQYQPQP
UniProt P53667: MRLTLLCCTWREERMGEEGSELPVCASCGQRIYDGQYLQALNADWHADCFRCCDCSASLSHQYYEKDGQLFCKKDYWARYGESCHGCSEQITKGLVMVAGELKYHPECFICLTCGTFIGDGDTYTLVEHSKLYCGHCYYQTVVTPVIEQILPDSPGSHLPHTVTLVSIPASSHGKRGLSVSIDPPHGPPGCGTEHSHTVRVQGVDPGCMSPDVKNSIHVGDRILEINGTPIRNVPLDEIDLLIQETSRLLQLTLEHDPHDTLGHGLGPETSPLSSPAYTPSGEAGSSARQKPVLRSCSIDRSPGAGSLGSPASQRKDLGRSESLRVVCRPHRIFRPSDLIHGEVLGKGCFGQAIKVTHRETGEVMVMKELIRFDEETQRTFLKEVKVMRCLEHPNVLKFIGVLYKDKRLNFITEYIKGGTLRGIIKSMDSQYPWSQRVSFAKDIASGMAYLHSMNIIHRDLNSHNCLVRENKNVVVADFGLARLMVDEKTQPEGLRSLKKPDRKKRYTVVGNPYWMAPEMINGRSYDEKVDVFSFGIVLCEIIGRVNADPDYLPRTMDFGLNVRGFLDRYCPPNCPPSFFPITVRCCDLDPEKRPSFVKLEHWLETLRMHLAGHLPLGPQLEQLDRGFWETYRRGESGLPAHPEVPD
UniProt P53671: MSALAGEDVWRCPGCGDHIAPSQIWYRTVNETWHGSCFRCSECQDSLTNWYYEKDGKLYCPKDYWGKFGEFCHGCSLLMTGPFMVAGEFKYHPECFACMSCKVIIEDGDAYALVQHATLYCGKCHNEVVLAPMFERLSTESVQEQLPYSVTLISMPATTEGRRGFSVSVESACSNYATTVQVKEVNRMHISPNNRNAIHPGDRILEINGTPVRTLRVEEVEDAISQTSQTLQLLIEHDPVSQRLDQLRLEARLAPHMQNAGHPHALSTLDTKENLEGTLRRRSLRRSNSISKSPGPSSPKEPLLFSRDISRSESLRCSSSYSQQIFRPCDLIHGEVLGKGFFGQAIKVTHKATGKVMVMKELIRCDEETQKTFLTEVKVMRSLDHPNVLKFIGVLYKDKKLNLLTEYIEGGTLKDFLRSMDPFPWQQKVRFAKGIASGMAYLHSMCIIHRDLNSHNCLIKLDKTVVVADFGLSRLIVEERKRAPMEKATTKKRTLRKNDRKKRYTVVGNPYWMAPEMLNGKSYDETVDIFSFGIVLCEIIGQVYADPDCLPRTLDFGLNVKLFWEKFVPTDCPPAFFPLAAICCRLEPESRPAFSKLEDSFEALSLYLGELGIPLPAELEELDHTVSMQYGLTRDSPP
UniProt Q8IWU2: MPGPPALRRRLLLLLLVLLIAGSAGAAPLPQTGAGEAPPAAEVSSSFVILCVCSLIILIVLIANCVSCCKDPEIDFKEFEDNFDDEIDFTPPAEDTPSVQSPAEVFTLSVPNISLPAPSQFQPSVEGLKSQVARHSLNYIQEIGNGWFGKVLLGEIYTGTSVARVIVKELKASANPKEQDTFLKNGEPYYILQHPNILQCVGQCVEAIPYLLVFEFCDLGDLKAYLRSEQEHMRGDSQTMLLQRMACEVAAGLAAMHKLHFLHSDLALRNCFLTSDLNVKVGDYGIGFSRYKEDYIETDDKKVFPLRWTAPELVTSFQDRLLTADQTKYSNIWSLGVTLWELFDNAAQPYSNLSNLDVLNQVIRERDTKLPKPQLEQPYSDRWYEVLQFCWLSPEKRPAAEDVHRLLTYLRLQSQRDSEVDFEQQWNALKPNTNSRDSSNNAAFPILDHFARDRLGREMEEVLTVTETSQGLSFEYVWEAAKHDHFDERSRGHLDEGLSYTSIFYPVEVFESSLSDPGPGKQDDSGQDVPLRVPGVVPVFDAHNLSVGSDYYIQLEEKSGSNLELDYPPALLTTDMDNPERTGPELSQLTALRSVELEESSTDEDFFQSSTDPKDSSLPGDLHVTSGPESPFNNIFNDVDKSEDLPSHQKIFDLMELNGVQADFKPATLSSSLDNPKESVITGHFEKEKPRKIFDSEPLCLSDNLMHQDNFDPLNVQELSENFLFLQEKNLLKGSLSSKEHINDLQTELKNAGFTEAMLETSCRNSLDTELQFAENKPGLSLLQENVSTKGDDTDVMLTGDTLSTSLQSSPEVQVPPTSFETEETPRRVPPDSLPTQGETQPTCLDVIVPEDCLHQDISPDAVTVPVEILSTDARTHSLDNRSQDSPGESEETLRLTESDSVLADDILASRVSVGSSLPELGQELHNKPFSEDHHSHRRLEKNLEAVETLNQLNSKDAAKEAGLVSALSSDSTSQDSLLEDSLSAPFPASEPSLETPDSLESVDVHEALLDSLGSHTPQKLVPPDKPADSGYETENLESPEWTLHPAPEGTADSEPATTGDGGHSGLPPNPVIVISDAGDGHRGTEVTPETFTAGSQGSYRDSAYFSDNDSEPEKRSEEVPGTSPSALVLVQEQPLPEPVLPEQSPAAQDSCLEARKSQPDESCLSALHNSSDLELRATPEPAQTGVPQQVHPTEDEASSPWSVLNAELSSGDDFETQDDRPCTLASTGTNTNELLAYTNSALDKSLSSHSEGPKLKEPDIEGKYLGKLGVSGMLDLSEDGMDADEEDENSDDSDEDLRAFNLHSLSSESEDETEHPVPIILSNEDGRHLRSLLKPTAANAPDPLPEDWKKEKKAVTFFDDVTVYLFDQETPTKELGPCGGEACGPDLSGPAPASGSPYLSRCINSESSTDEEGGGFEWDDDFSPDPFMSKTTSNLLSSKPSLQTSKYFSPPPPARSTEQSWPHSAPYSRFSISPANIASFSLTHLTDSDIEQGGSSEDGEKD
UniProt P07948: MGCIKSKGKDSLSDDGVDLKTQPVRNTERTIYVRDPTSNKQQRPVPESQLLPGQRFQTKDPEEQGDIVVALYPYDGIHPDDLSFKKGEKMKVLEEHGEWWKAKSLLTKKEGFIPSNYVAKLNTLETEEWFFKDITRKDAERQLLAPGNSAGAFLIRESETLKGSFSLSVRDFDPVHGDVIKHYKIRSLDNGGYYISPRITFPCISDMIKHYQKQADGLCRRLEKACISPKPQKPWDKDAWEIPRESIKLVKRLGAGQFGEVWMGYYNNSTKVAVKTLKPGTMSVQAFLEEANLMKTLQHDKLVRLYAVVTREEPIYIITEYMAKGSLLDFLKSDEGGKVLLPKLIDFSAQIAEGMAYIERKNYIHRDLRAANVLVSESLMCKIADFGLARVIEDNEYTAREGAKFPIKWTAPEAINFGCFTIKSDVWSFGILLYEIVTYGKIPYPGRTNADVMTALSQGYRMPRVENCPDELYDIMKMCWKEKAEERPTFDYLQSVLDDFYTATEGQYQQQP
UniProt Q12851: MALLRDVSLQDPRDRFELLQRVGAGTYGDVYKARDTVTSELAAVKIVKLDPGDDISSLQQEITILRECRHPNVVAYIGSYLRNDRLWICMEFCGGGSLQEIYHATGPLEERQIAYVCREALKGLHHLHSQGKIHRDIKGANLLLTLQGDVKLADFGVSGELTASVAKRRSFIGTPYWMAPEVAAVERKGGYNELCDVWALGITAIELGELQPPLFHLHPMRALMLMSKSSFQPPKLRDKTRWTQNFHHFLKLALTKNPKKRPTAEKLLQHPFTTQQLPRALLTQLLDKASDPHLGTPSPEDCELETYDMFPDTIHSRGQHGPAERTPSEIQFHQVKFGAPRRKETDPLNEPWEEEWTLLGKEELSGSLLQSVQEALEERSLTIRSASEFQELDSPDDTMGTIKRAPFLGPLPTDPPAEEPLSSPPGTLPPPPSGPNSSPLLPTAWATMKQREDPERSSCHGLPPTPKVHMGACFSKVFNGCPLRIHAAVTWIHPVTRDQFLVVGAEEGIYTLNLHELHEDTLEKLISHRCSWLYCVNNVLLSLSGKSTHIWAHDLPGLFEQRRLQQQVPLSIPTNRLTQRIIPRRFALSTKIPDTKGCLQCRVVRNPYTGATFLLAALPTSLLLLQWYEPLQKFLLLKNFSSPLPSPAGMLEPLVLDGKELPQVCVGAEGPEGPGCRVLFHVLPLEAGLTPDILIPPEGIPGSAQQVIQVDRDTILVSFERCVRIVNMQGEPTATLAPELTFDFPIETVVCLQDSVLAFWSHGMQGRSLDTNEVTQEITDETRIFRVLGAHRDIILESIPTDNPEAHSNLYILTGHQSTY

Columns and labels:
Experiment in all cases: kinase-Nluc reporter destabilization hit call (1 = scored as downregulated) (binary); higher = compound decreases kinase abundance
Details in all cases: K562, 2-18 h
IRAK3 = IRAK3 (UniProt Q9Y616)
JAK1 = JAK1 (UniProt P23458)
LCK = LCK (UniProt P06239)
LIMK1 = LIMK1 (UniProt P53667)
LIMK2 = LIMK2 (UniProt P53671)
LMTK2 = LMTK2 (UniProt Q8IWU2)
LYN = LYN (UniProt P07948)
MAP2K1 = MAP2K1 (UniProt Q02750)
MAP2K2 = MAP2K2 (UniProt P36507)
MAP4K2 = MAP4K2 (UniProt Q12851)

Measured: kinase-Nluc reporter destabilization hit call

CCc1nc(C(N)=O)c(Nc2ccc(N3CCC(N4CCN(C)CC4)CC3)c(OC)c2)nc1NC1CCOCC1 [Gilteritinib]
inactive: IRAK3; 2 µM 0 | JAK1; 2 µM 0 | LCK; 2 µM 0 | LIMK1; 2 µM 0 | LIMK2; 2 µM 0 | LMTK2; 2 µM 0 | LYN; 2 µM 0 | MAP2K1; 2 µM 0 | MAP2K2; 2 µM 0 | MAP4K2; 2 µM 0

CN1CCCN(C(=O)c2cccc(-c3ccc(/C=C4/C(=O)Nc5ccc(Cl)cc54)o3)c2)CC1 [CX-6258 (hydrochloride hydrate)]
inactive: IRAK3; 2.5 µM 0 | JAK1; 2.5 µM 0 | LCK; 2.5 µM 0 | LIMK1; 2.5 µM 0 | LIMK2; 2.5 µM 0 | LMTK2; 2.5 µM 0 | LYN; 2.5 µM 0 | MAP2K1; 2.5 µM 0 | MAP2K2; 2.5 µM 0 | MAP4K2; 2.5 µM 0

C[C@H](Nc1cc(-c2cnn(C)c2)cc(Nc2cnccn2)n1)c1ccc(F)cc1 [Ilginatinib hydrochloride]
inactive: IRAK3; 2.5 µM 0 | JAK1; 2.5 µM 0 | LCK; 2.5 µM 0 | LIMK1; 2.5 µM 0 | LIMK2; 2.5 µM 0 | LMTK2; 2.5 µM 0 | LYN; 2.5 µM 0 | MAP2K1; 2.5 µM 0 | MAP2K2; 2.5 µM 0 | MAP4K2; 2.5 µM 0

COc1ccc2c(c1)C(c1ccc(F)cc1)=C(CN1CCCC1)CO2
inactive: IRAK3; 10 µM 0 | JAK1; 10 µM 0 | LCK; 10 µM 0 | LIMK1; 10 µM 0 | LIMK2; 10 µM 0 | LMTK2; 10 µM 0 | LYN; 10 µM 0 | MAP2K1; 10 µM 0 | MAP2K2; 10 µM 0 | MAP4K2; 10 µM 0

Quoted at random: 2 records from the list
C[C@H](Nc1cc(-c2cnn(C)c2)cc(Nc2cnccn2)n1)c1ccc(F)cc1 [Ilginatinib hydrochloride]
inactive: IRAK3; 2.5 µM 0 | JAK1; 2.5 µM 0 | LCK; 2.5 µM 0 | LIMK1; 2.5 µM 0 | LIMK2; 2.5 µM 0 | LMTK2; 2.5 µM 0 | LYN; 2.5 µM 0 | MAP2K1; 2.5 µM 0 | MAP2K2; 2.5 µM 0 | MAP4K2; 2.5 µM 0

CCc1nc(C(N)=O)c(Nc2ccc(N3CCC(N4CCN(C)CC4)CC3)c(OC)c2)nc1NC1CCOCC1 [Gilteritinib]
inactive: IRAK3; 2 µM 0 | JAK1; 2 µM 0 | LCK; 2 µM 0 | LIMK1; 2 µM 0 | LIMK2; 2 µM 0 | LMTK2; 2 µM 0 | LYN; 2 µM 0 | MAP2K1; 2 µM 0 | MAP2K2; 2 µM 0 | MAP4K2; 2 µM 0

Following part

FC(F)(F)c1ccc(CNc2ccc(Cc3c[nH]c4ncc(Cl)cc34)cn2)cn1 [Pexidartinib (hydrochloride)]
inactive: IRAK3; 10 µM 0 | JAK1; 10 µM 0 | LCK; 10 µM 0 | LIMK1; 10 µM 0 | LIMK2; 10 µM 0 | LMTK2; 10 µM 0 | LYN; 10 µM 0 | MAP2K1; 10 µM 0 | MAP2K2; 10 µM 0 | MAP4K2; 10 µM 0

C=CC(=O)Nc1cc(Nc2nccc(-c3cn(C4CC4)c4ccccc34)n2)c(OC)cc1N(C)CCN(C)C [Almonertinib (hydrochloride)]
inactive: IRAK3; 2.5 µM 0 | JAK1; 2.5 µM 0 | LCK; 2.5 µM 0 | LIMK1; 2.5 µM 0 | LIMK2; 2.5 µM 0 | LMTK2; 2.5 µM 0 | LYN; 2.5 µM 0 | MAP2K1; 2.5 µM 0 | MAP2K2; 2.5 µM 0 | MAP4K2; 2.5 µM 0

COC(=O)[C@H](CC(C)C)NC(=O)c1ccc(NC[C@@H](N)CS)cc1-c1cccc2ccccc12
inactive: IRAK3; 10 µM 0 | JAK1; 10 µM 0 | LCK; 10 µM 0 | LIMK1; 10 µM 0 | LIMK2; 10 µM 0 | LMTK2; 10 µM 0 | LYN; 10 µM 0 | MAP2K1; 10 µM 0 | MAP2K2; 10 µM 0 | MAP4K2; 10 µM 0

COc1cc2nccc(Oc3ccc(NC(=O)C4(C(=O)Nc5ccc(F)cc5)CC4)cc3)c2cc1OC [Cabozantinib (S-malate)]
inactive: IRAK3; 10 µM 0 | JAK1; 10 µM 0 | LCK; 10 µM 0 | LIMK1; 10 µM 0 | LIMK2; 10 µM 0 | LMTK2; 10 µM 0 | LYN; 10 µM 0 | MAP2K1; 10 µM 0 | MAP2K2; 10 µM 0 | MAP4K2; 10 µM 0

CNc1ncc2cc(-c3ccc(-c4cccc(C)n4)cc3Cl)c(=O)n(C[C@H]3OC[C@H](N)CO3)c2n1 [G-5555 (hydrochloride)]
inactive: IRAK3; 10 µM 0 | JAK1; 10 µM 0 | LCK; 10 µM 0 | LIMK1; 10 µM 0 | LIMK2; 10 µM 0 | LMTK2; 10 µM 0 | LYN; 10 µM 0 | MAP2K1; 10 µM 0 | MAP2K2; 10 µM 0 | MAP4K2; 10 µM 0

N#CC[C@H](C1CCCC1)n1cc(-c2ncnc3[nH]ccc23)cn1 [Ruxolitinib]
inactive: IRAK3; 10 µM 0 | JAK1; 10 µM 0 | LCK; 10 µM 0 | LIMK1; 10 µM 0 | LIMK2; 10 µM 0 | LMTK2; 10 µM 0 | LYN; 10 µM 0 | MAP2K1; 10 µM 0 | MAP2K2; 10 µM 0 | MAP4K2; 10 µM 0

CNC(=O)c1cc(Oc2ccc(NC(=O)Nc3ccc(Cl)c(C(F)(F)F)c3)c(F)c2)ccn1 [Regorafenib]
inactive: IRAK3; 2.5 µM 0 | JAK1; 2.5 µM 0 | LCK; 2.5 µM 0 | LIMK1; 2.5 µM 0 | LIMK2; 2.5 µM 0 | LMTK2; 2.5 µM 0 | LYN; 2.5 µM 0 | MAP2K1; 2.5 µM 0 | MAP2K2; 2.5 µM 0 | MAP4K2; 2.5 µM 0

COc1ccnc(C[S+]([O-])c2nc3cc(-n4cccc4)ccc3[nH]2)c1C (stereo not given) [Ilaprazole (sodium)]
inactive: IRAK3; 10 µM 0 | JAK1; 10 µM 0 | LCK; 10 µM 0 | LIMK1; 10 µM 0 | LIMK2; 10 µM 0 | LMTK2; 10 µM 0 | LYN; 10 µM 0 | MAP2K1; 10 µM 0 | MAP2K2; 10 µM 0 | MAP4K2; 10 µM 0

C[C@@H](N)c1ccc(C(=O)Nc2ccnc3[nH]ccc23)cc1
inactive: IRAK3; 10 µM 0 | JAK1; 10 µM 0 | LCK; 10 µM 0 | LIMK1; 10 µM 0 | LIMK2; 10 µM 0 | LMTK2; 10 µM 0 | LYN; 10 µM 0 | MAP2K1; 10 µM 0 | MAP2K2; 10 µM 0 | MAP4K2; 10 µM 0

O=C(Nc1ccncc1)Nc1ccc(-c2nc(N3CCOCC3)nc(N3C4CCC3COC4)n2)cc1 [PKI-179 (hydrochloride)]
inactive: IRAK3; 2.5 µM 0 | JAK1; 2.5 µM 0 | LCK; 2.5 µM 0 | LIMK1; 2.5 µM 0 | LIMK2; 2.5 µM 0 | LMTK2; 2.5 µM 0 | LYN; 2.5 µM 0 | MAP2K1; 2.5 µM 0 | MAP2K2; 2.5 µM 0 | MAP4K2; 2.5 µM 0
